The text below walks through data of PMC5025166.

Chains of the proteins cited; added tags and fusions are not shown.
UniProt P63101: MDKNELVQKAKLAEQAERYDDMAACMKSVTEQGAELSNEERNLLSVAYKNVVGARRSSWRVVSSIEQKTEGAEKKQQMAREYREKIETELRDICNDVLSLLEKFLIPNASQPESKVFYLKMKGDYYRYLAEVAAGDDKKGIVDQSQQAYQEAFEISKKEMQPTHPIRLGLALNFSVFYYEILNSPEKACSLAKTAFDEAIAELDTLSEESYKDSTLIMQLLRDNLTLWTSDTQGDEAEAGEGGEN
UniProt Q925T6: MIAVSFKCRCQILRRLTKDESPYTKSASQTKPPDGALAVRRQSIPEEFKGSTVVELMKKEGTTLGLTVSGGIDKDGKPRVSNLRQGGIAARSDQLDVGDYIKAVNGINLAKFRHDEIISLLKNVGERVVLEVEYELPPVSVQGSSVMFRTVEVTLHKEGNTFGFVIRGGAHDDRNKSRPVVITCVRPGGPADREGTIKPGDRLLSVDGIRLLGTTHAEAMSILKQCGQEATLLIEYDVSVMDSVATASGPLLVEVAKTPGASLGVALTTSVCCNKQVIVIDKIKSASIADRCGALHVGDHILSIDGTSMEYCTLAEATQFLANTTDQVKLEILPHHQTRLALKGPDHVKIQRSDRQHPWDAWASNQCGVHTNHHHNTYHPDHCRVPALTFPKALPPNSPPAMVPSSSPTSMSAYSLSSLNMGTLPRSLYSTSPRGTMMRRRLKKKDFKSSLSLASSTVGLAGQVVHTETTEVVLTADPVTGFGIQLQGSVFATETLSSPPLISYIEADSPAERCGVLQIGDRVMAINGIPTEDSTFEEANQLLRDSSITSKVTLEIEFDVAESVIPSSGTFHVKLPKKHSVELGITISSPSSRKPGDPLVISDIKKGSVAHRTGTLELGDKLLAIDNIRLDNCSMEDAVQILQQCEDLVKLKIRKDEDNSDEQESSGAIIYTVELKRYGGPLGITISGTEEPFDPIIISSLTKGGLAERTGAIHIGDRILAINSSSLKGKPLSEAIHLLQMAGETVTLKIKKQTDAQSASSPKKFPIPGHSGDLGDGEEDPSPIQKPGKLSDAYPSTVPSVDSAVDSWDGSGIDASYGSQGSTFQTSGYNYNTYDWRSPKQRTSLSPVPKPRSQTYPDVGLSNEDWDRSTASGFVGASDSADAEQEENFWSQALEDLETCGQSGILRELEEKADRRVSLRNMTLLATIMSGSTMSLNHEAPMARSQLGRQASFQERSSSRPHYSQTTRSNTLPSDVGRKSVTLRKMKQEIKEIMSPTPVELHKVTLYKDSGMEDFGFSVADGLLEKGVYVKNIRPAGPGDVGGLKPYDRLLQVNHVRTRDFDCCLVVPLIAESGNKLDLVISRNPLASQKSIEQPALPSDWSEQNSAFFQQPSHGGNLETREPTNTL

Test [1] deals with T1, GPIbβ (mouse (endogenous in mouse platelets)) (UniProt P56400).
T1 sequence: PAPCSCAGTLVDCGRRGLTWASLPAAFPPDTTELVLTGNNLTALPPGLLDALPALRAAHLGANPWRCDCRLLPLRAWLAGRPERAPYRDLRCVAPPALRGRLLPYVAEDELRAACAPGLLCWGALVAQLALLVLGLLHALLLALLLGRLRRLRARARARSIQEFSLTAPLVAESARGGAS
Briefly: co-IP; NP-40 lysates of washed mouse platelets (WT and GRIP1-/-; resting or after botrocetin and vWF); antibody overnight at 4°C, protein A/G beads, one wash with PBS, Western blot. (Immunoblotting shows a protein as a band on a membrane.)

Test [2] has as its target 14-3-3ζ (mouse (endogenous in mouse platelets)) (UniProt P63101). The description is as above.

No constants are given. Whether binding was seen depends on the method and setting. Binding seen in cells or lysates may run through a third protein. Some binding calls cover weakened binding; strength is not graded here.

For 14-3-3ζ (from UniProt P63101 1-245), the binding entry in test [1] is listed as “binds”.
Take “Glutamate receptor interacting protein 1 (from UniProt Q925T6 1-1127)”: the binding result in test [2] and in test [1] was “binds” each time.
